This is one part of the list. Residues, ends and D or L forms follow the SMILES beside them. *: point of attachment. Cbz = O=C(OCc1ccccc1)*
What was measured:
Assay in all cases: log2 fold change, soluble protein after heating vs DMSO (PISA); higher = thermal stabilisation; K562 cells, 10 uM, 30 min; active = over 0.2 and 3.5 SD of the protein, either way, in both replicates (recomputed)
IRAK-1-4 Inhibitor I = compound: C1COCCN1CCN2C3=CC=CC=C3N=C2NC(=O)C4=CC(=CC=C4)[N+](=O)[O-] [IRAK-1-4 Inhibitor I]
How it was run: (§1)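 Quantification of soluble protein used TMTpro 16plex LC-MS/MS, with channel sums equalised. Samples were the supernatant after 21,000xg for 90 min of pooled aliquots from K562 cells (2×10^6 cells/mL) treated with 10 μM compound for 30 min, heated for 3 min over 48°C-58°C, and extracted in PBS with 0.5% NP-40 at 4°C. Values, from duplicates, describe thermal stability against control samples on a log2 fold-change scale.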

Sequences of proteins named here, by UniProt entry; tags and fusion partners are left off. A change or cut given only in a name is not applied to a line headed by its entry.
UniProt Q8N1Q1: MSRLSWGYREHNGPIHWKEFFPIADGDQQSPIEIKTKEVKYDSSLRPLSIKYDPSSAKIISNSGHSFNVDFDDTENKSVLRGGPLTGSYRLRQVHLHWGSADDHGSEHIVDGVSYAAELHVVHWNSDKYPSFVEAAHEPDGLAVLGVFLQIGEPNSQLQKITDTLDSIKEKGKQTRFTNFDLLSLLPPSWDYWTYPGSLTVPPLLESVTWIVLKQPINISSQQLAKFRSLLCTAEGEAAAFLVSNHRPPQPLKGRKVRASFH
UniProt Q0VDD7: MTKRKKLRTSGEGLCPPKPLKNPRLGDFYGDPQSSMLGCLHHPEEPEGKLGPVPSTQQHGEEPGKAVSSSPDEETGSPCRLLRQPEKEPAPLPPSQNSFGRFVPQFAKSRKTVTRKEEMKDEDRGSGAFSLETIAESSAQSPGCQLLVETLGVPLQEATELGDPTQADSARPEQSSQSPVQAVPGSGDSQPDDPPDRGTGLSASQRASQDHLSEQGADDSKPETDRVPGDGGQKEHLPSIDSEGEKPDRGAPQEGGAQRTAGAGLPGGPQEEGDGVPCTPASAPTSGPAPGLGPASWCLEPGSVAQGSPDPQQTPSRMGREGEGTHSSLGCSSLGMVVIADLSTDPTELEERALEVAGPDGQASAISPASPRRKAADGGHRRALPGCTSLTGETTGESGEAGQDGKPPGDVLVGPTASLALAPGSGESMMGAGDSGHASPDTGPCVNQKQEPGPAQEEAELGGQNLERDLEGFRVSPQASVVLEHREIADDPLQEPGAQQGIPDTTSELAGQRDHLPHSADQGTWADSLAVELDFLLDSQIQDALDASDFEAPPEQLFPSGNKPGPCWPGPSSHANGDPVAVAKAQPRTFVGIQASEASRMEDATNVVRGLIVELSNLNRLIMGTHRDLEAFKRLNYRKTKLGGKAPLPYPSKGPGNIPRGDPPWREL
UniProt Q96RR4, whole entry, looked up: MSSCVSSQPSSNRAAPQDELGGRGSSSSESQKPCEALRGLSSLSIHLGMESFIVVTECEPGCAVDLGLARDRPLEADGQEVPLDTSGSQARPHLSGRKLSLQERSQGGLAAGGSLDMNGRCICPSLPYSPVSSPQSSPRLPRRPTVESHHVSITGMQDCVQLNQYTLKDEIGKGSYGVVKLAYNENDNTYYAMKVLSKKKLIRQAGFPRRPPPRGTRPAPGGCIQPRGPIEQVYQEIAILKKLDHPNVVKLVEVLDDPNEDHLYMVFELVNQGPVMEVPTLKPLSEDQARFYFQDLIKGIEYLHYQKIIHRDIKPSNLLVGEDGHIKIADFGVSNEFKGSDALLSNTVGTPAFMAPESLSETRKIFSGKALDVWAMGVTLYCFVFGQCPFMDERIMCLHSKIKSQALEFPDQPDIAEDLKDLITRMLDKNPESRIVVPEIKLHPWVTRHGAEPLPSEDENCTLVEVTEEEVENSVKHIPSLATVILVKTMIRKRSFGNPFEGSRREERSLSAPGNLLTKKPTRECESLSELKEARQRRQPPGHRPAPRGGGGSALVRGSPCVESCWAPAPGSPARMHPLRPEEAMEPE
UniProt Q5SQH8: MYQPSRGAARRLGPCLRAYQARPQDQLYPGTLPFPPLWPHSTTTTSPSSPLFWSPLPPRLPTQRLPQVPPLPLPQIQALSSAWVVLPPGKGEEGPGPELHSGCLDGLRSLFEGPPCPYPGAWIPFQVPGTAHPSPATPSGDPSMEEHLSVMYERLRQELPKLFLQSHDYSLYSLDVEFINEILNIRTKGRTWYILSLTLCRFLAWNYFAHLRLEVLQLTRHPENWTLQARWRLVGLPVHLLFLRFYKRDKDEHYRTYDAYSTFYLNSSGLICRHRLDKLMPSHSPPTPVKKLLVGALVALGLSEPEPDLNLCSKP
UniProt P05937: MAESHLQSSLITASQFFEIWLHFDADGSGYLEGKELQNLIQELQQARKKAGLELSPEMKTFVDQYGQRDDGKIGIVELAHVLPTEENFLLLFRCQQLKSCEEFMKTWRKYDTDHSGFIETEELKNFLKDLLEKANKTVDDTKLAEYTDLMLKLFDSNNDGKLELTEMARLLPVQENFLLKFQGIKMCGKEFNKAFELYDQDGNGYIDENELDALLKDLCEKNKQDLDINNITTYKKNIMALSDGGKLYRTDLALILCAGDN
UniProt O60566, whole entry, looked up: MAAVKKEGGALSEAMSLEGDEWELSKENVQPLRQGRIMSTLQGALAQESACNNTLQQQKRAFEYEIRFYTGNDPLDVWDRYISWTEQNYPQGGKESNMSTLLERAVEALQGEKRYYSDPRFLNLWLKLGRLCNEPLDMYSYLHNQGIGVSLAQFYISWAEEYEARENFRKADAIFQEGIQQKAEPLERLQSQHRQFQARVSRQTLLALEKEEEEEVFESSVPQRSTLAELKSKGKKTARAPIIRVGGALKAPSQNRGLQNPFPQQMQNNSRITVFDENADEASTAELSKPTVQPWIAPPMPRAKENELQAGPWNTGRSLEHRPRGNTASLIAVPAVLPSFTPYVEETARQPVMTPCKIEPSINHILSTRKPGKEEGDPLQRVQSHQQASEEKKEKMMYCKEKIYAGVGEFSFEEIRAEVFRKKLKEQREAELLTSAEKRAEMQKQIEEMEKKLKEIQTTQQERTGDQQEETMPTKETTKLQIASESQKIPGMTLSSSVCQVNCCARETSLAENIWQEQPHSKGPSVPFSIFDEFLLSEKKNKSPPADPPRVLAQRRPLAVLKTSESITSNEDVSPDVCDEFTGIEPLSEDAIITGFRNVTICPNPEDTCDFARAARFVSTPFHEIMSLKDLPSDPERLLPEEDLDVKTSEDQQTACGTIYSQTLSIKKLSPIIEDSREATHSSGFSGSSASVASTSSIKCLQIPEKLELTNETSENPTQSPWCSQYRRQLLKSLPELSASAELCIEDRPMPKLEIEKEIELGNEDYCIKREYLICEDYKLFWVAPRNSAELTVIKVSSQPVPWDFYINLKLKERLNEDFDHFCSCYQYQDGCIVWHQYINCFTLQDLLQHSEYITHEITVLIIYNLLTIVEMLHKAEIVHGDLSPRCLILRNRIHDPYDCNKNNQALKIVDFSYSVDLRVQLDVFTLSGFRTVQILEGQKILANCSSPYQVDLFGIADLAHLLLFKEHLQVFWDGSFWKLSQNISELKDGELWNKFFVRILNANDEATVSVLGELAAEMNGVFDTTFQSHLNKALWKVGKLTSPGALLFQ
UniProt Q7L1Q6: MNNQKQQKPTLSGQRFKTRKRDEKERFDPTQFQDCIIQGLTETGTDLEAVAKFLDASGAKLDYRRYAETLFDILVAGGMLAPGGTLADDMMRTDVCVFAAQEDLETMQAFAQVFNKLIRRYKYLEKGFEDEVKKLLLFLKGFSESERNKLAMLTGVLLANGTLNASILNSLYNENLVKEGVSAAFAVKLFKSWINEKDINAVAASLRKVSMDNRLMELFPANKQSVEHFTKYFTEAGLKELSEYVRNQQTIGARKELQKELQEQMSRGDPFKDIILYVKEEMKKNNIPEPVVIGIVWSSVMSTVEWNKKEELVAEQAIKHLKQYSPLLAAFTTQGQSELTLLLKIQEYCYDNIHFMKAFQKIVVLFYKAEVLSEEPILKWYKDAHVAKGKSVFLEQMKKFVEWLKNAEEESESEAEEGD
UniProt Q13901: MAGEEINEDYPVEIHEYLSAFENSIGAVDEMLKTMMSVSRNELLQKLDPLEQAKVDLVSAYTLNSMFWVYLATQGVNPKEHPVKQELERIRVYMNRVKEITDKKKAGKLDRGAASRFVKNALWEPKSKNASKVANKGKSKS
UniProt Q5T6V5: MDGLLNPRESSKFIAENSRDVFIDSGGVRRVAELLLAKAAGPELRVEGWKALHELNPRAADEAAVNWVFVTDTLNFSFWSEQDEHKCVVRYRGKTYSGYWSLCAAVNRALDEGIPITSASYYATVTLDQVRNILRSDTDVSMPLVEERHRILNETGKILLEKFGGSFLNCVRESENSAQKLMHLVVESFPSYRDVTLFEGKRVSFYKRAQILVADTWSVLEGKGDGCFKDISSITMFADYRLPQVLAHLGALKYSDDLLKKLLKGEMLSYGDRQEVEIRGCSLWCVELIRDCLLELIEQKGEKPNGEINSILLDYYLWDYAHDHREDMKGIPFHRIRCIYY

ibrutinib = compound: C=CC(=O)N1CCC[C@@H](n2nc(-c3ccc(Oc4ccccc4)cc3)c3c(N)ncnc32)C1 [ibrutinib]
How it was run: as §1

[1] = compound: CC(=O)c1cnc2ccc(-c3cc(Cl)c(O)c(Cl)c3)nc2c1N[C@H]1CC[C@H](CN(C)C)CC1
How it was run: as §1

ralimetinib = compound: CC(C)(C)Cn1c(N)nc2ccc(-c3[nH]c(C(C)(C)C)nc3-c3ccc(F)cc3)nc21 [ralimetinib]
How it was run: as §1

[2] = compound: CC(C)(O)CC(=O)NCCn1ccc2ncnc(Nc3ccc(Oc4cccc(C(F)(F)F)c4)c(Cl)c3)c21
How it was run: as §1

[3] = compound: CC(C)C1=C2N=C(C=C(N2N=C1)NCC3=CC=CC=C3)NCCCCCCN
How it was run: as §1

[4] = compound: CC(C)C[C@@H](C=O)NC(=O)[C@H](CC(C)C)NC(=O)[C@H](CC(C)C)NC(=O)OCc1ccccc1
How it was run: as §1

pinometostat = compound: CC(C)N(C[C@H]1O[C@@H](n2cnc3c(N)ncnc32)[C@H](O)[C@@H]1O)[C@H]1C[C@@H](CCc2nc3cc(C(C)(C)C)ccc3[nH]2)C1 [pinometostat]
How it was run: as §1

[5] = compound: CC1=C(C(CC(=O)N1)C2=CC=C(C=C2)C(F)(F)F)C(=O)NC3=C(C=C4C(=C3)C=NN4)F
How it was run: as §1

[6] = compound: CC1=C(C2=C(C=C1)C(=O)C3=CC=CC=C3N2CCCN)C
How it was run: as §1

[7] = compound: CC1=C(C=C(C=C1)NC(=O)C2=CC(=CC=C2)C(C)(C)C#N)NC3=CC4=C(C=C3)N=CN(C4=O)C
How it was run: as §1

[8] = compound: CC1=C(C=C(C=C1)NC(=O)C2=CC(=CC=C2)N(C)C)NC(=O)C3=CC=C(C=C3)O
How it was run: as §1

[9] = compound: CC1=NC(=CC=C1)C2=C(N=C(N2)C(C)(C)C)C3=CC4=NC=CN=C4C=C3
How it was run: as §1

Nexturastat A = compound: CCCCN(Cc1ccc(C(=O)NO)cc1)C(=O)Nc1ccccc1 [Nexturastat A]
How it was run: as §1

vemurafenib = compound: CCCS(=O)(=O)Nc1ccc(F)c(C(=O)c2c[nH]c3ncc(-c4ccc(Cl)cc4)cc23)c1F [vemurafenib]
How it was run: as §1

[10] = compound: CCCc1cc(C)[nH]c(=O)c1CNC(=O)c1cc(-c2ccnc(N3CCN(C)CC3)c2)cc2c1cnn2C(C)C
How it was run: as §1

givinostat = compound: CCN(CC)Cc1ccc2cc(COC(=O)Nc3ccc(C(=O)NO)cc3)ccc2c1 [givinostat]
How it was run: as §1

barasertib = compound: CCN(CCCOc1ccc2c(Nc3cc(CC(=O)Nc4cccc(F)c4)[nH]n3)ncnc2c1)CCOP(=O)(O)O [barasertib]
How it was run: as §1

[11] = compound: CC1=CC=C(C=C1)SC2=C3C=C(SC3=CN=C2)C(=O)N
How it was run: as §1

[12] = compound: CCCS(=O)(=O)Nc1ccc(F)c(C(=O)c2c[nH]c3ncc(Cl)cc23)c1F
How it was run: as §1

Measured: log2 fold change

CA13 (UniProt Q8N1Q1)
inactive: IRAK-1-4 Inhibitor I 0.021 | ibrutinib -0.116 | [1] 0.087 | ralimetinib 0.023 | [2] -0.01 | [3] 0.113 | [4] 0.011 | pinometostat -0.145 | [5] 0.029 | [6] 0.049 | [7] -0.078 | [8] -0.075 | [9] 0.069 | Nexturastat A -0.037 | vemurafenib -0.015 | [10] 0.081 | givinostat -0.022 | barasertib -0.057

C19orf57 (UniProt Q0VDD7)
inactive: IRAK-1-4 Inhibitor I 0.003 | ibrutinib -0.075 | [1] -0.042 | ralimetinib -0.016 | [3] -0.025 | [4] 0.052 | pinometostat -0.05 | [8] 0.065 | [9] -0.008 | vemurafenib -0.035 | givinostat 0.06 | barasertib -0.066

CAMKK2 (UniProt Q96RR4)
inactive: IRAK-1-4 Inhibitor I -0.05 | ibrutinib -0.069 | [1] 0.131 | ralimetinib -0.117 | [2] 0.002 | [3] 0.069 | [4] -0.052 | pinometostat 0.142 | [6] -0.025 | [7] 0.022 | [8] 0.024 | [11] -0.044 | [9] -0.009 | Nexturastat A 0.154 | vemurafenib 0.037 | [12] -0.043 | [10] 0.277 | givinostat -0.017 | barasertib 0.058

C6orf136 isoform 4 (UniProt Q5SQH8)
inactive: IRAK-1-4 Inhibitor I 0.038 | ibrutinib 0.467 | [1] -0.048 | ralimetinib 0.025 | [3] 0.186 | [4] -0.069 | pinometostat 0.051 | [5] -0.207 | [6] 0.141 | [7] -0.166 | [8] -0.021 | [9] 0.107 | [10] -0.39 | givinostat 0.114 | barasertib -0.01

CALB1 (UniProt P05937)
inactive: IRAK-1-4 Inhibitor I 0.016 | ibrutinib -0.033 | [1] 0.017 | ralimetinib -0.078 | [2] -0.052 | [4] -0.017 | pinometostat -0.043 | [6] -0.148 | [7] -0.004 | [8] 0.032 | [11] 0.027 | [9] 0.042 | Nexturastat A -0.023 | vemurafenib 0.057 | [12] 0.019 | [10] 0.011 | givinostat -0.031 | barasertib 0.037
active: [3] -0.245

BUB1B isoform 3 (UniProt O60566)
inactive: IRAK-1-4 Inhibitor I -0.092 | ibrutinib -0.039 | [1] -0.023 | ralimetinib 0.106 | [2] -0.089 | [3] -0.098 | [4] 0.09 | pinometostat 0.11 | [6] 0.017 | [7] 0.004 | [8] -0.031 | [11] 0.059 | [9] -0.014 | Nexturastat A 0.087 | vemurafenib 0.058 | [12] 0.14 | [10] 0.043 | givinostat 0.118 | barasertib 0.034

BZW1 isoform 3 (UniProt Q7L1Q6)
inactive: IRAK-1-4 Inhibitor I -0.118 | ibrutinib -0.123 | [1] 0.005 | ralimetinib 0.049 | [2] -0.296 | [4] 0.007 | pinometostat 0.123 | [6] 0.068 | [7] 0.064 | [8] -0.014 | [11] 0.036 | [9] 0.038 | Nexturastat A 0.016 | vemurafenib 0.107 | [12] 0.126 | [10] 0.105 | givinostat 0.084 | barasertib 0.06
active: [3] -0.422

C1D (UniProt Q13901)
inactive: IRAK-1-4 Inhibitor I 0.013 | ibrutinib -0.041 | [1] -0.081 | ralimetinib 0.016 | [2] -0.047 | [3] 0.072 | [4] 0.055 | pinometostat -0.081 | [6] -0.004 | [7] 0.058 | [8] 0.002 | [11] -0.015 | [9] -0.045 | Nexturastat A -0.053 | vemurafenib -0.046 | [12] -0.175 | [10] -0.019 | givinostat -0.002 | barasertib 0.104

2 entries drawn at random from those above:
CALB1 (UniProt P05937)
inactive: IRAK-1-4 Inhibitor I 0.016 | ibrutinib -0.033 | [1] 0.017 | ralimetinib -0.078 | [2] -0.052 | [4] -0.017 | pinometostat -0.043 | [6] -0.148 | [7] -0.004 | [8] 0.032 | [11] 0.027 | [9] 0.042 | Nexturastat A -0.023 | vemurafenib 0.057 | [12] 0.019 | [10] 0.011 | givinostat -0.031 | barasertib 0.037
active: [3] -0.245

BZW1 isoform 3 (UniProt Q7L1Q6)
inactive: IRAK-1-4 Inhibitor I -0.118 | ibrutinib -0.123 | [1] 0.005 | ralimetinib 0.049 | [2] -0.296 | [4] 0.007 | pinometostat 0.123 | [6] 0.068 | [7] 0.064 | [8] -0.014 | [11] 0.036 | [9] 0.038 | Nexturastat A 0.016 | vemurafenib 0.107 | [12] 0.126 | [10] 0.105 | givinostat 0.084 | barasertib 0.06
active: [3] -0.422

Additional records follow.

C9orf64 (UniProt Q5T6V5)
inactive: IRAK-1-4 Inhibitor I -0.041 | ibrutinib -0.03 | [1] -0.019 | ralimetinib -0.018 | [2] -0.181 | [3] -0.288 | [4] 0.012 | pinometostat 0.053 | [6] -0.097 | [7] 0.014 | [8] -0.014 | [11] 0.029 | [9] 0.001 | Nexturastat A 0.029 | vemurafenib -0.032 | [12] 0.079 | [10] -0.036 | givinostat 0.064 | barasertib 0.08

Reference: the supplement of paper PMC10849652
